# Results reported in PubChem BioAssay AID493014 (National Center for Advancing Translational Sciences (NCATS), 2011).
# Where “and” joins values, the source holds several entries; their conditions need not be identical. Equal values may be shown once. The list shows a part of the results. Shown are side measurements of this screen, not its main read-out; they come without a call. Most of these compounds were active or inconclusive in the main read-out, so they are no random draw. The note in brackets gives the kind of curve behind each potency; many fits are weak.
# Experiment: qHTS Assay to Find Inhibitors of Chronic Active B-Cell Receptor Signaling
# Conditions: ABC-DLBCL IkBa-CBG/CBR reporter, luminescence ratio (green luciferase fused to IkBa over red control in TMD8 lymphoma cells), 4 h
# In short: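 Cell line TMD8 (human ABC DLBCL), stably expressing tet-inducible CBG68-IkBa fusion and CBR; IMDM/0.5% FBS; cpd up to 46 uM; dox induction, 4 h, 37C/5% CO2; dual luminescence; green/red ratio; MG132 control.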
# [1] = measured here: CBR red luminescence, cell number
# [2] = measured here: IkBa-CBG green luminescence
SMILES,AC50 [1],AC50 [2]
CC1(C)CC(=O)C=C(NCCc2ccccc2)C1,"35.5 µM [falling, single point]",–
COc1cc(OC)cc(C(=O)Nc2ccc([N+](=O)[O-])cn2)c1,"1.64 µM [falling, full curve, poor fit]",–
O=C(Nc1cccc(C(=O)N2CCN(c3cccc(Cl)c3)CC2)c1)c1ccccc1,"0.112 µM [falling, full curve, poor fit]",–
Cc1nonc1OCCNCc1c(C(=O)N(C)C)nc2ccc(Cl)cn12,"2 µM [falling, full curve, poor fit]",–
O=C(O)Cn1c(=O)c2cccn2c2ccccc21,"12.6 µM [rising, partial curve, poor fit]",–
COc1cc(C2c3sc(=O)[nH]c3SC3C(=O)N(c4ccc(Br)cc4)C(=O)C32)ccc1O (stereo unspecified),"25.1 µM [falling, single point]",–
Cc1nc(=O)c(-c2ccccc2)c(C)n1CCCCCC(=O)O,"29.1 µM [rising, single point]",–
CCCc1[nH]n(-c2nc3ccccc3s2)c(=O)c1C=NCCCN(CC)CC,"22.4 µM [falling, partial curve, poor fit]",–
COc1ccc(/C=N\NC(=O)c2cc(O)c(O)c(O)c2)cc1COc1ccc(C(=O)OCC(C)C)cc1,"35.5 µM [falling, single point]",–
Nc1nc(SCC(=O)Nc2ccc(Cl)cc2)[nH]c(=O)c1-c1ccccc1,"0.501 µM [rising, full curve, poor fit]",–
CN(C)c1ccc(/C=N/N2CCN(c3ccccn3)CC2)cc1,"3.98 µM [rising, single point]",–
CCOC(=O)c1sc(NC(=O)CN2C(=O)NC3(CC(C)CC(C)(C)C3)C2=O)c(C(=O)OCC)c1C (stereo unspecified),"18.4 µM [rising, partial curve, poor fit]",–
O=C(O)c1ccc(NC2=C(n3nnc4ccccc43)C(=O)c3ccccc3C2=O)cc1,"2.24 µM [rising, single point]",–
Oc1ccc(Cl)cc1CNCC1CCCO1 (stereo unspecified),"29.1 µM [rising, single point]",–
Cc1cccc(-c2nsc(SCC(=O)Nc3cc(C)on3)n2)c1,"6.31 µM [rising, single point]",–
CC(=O)Nc1ccc(S(=O)(=O)N2CCC(NC(=O)C(Cc3cccc(F)c3)NC(C)=O)CC2)cc1 (stereo unspecified),"2.82 µM [rising, partial curve, poor fit]",–
O=C(COC(=O)Cc1ccc(-c2ccccc2)cc1)NCc1ccccc1,"6.51 µM [rising, partial curve]","23.1 µM [falling, partial curve, poor fit]"
Cc1cc(C)n(CCCNC(=O)C(C)(C)Oc2ccc(Cl)cc2)n1,"18.4 µM [falling, single point]",–
C=CCC1S/C(=N/N=C/c2cccs2)NC1=O (stereo unspecified),"25.1 µM [falling, single point]",–
COc1ccc(CC(=O)OCC(=O)Nc2ccc(C(=O)Nc3ccc(OC)cc3)cc2)cc1,"1.12 µM [falling, partial curve, poor fit]",–
O=C(NC1CCCCCC1)c1cc2c(=O)n3ccccc3nc2s1,"3.98 µM [falling, full curve, poor fit]",–

# Structures from the list above that contain two or more sulfur atoms (3):
SMILES,AC50 [1],AC50 [2]
COc1cc(C2c3sc(=O)[nH]c3SC3C(=O)N(c4ccc(Br)cc4)C(=O)C32)ccc1O (stereo unspecified),"25.1 µM [falling, single point]",–
Cc1cccc(-c2nsc(SCC(=O)Nc3cc(C)on3)n2)c1,"6.31 µM [rising, single point]",–
C=CCC1S/C(=N/N=C/c2cccs2)NC1=O (stereo unspecified),"25.1 µM [falling, single point]",–

# Continued:

SMILES,AC50 [1],AC50 [2]
CC(=O)c1cccc(N(C(=O)c2ccco2)C(C(=O)NC2CCCC2)c2ccc(N3CCOCC3)cc2)c1 (stereo unspecified),"0.562 µM [rising, full curve, poor fit]",–
O=C(c1ccc(F)cc1)C(CCCCCC(CN1CCOCC1)C(=O)c1ccc(F)cc1)CN1CCOCC1 (stereo unspecified),"35.5 µM [falling, single point]",–
CCN(CC)S(=O)(=O)c1cc(C(=O)Nc2ccccc2[N+](=O)[O-])ccc1Cl,"14.6 µM [falling, partial curve]",–
O=c1c2cc(F)ccc2sn1-c1ccc(F)cc1,"16.4 µM [falling, partial curve, poor fit]","16.4 µM [falling, partial curve, poor fit]"
COc1ccc(C(=O)NCC2(c3ccccc3)CCCC2)c(OC)c1,"6.31 µM [falling, partial curve]",–
O=C(Nc1cccc(C(=O)N2CCOCC2)c1)NC1CCCCC1,"8.91 µM [rising, partial curve, poor fit]",–
O=C(c1ccc(COc2ccc(Cl)cc2Cl)o1)N1CCCC1,"3.16 µM [rising, single point]",–
C[C@@H]1[C@H](O)C[C@@]23COC(=O)C2=CCCC3[C@@]1(C)CCC1COC(=O)C1 (stereo partly specified),"25.9 µM [rising, partial curve, poor fit]",–
COc1cccc(/C=C/C(=O)Nc2cc(S(=O)(=O)N3CCOCC3)ccc2OC)c1,"6.51 µM [rising, single point]","2.59 µM [falling, full curve]"
NS(=O)(=O)c1ccc(Sc2nc3ccccc3s2)c([N+](=O)[O-])c1,"1.12 µM [falling, full curve]",–
COc1ccc2c(c1)[C@H]1[C@H](CO2)[C@H](c2ccccc2)[C@]2(C)C(=O)Nc3cc(F)ccc3C(=O)N12,"4.11 µM [falling, full curve]",–
CCOc1ccc(NC(=O)c2cc(OC)nc3ccccc23)cc1,–,"11.2 µM [falling, partial curve]"
COc1ccccc1C(=O)NNC(=O)c1cccc(C)c1,"8.91 µM [falling, partial curve]",–
O=C(Nc1ccc(S(=O)(=O)N2CCOCC2)cc1)c1cc([N+](=O)[O-])ccc1Cl,"11.2 µM [falling, partial curve, poor fit]",–
Cc1cccc(OCc2nnc(SCC(=O)N3c4ccccc4CCc4ccccc43)o2)c1,"22.4 µM [falling, single point]",–
CCOC(=O)c1cnc2c(-c3ccccc3)c(C)nn2c1N,"2.31 µM [rising, full curve, poor fit]",–
COc1ccc(C(=O)c2oc3ccccc3c2N)cc1,"6.51 µM [falling, single point]",–
COc1ccc2nc(C)cc(SCC(=O)O)c2c1,"0.00461 µM [falling, full curve, poor fit]",–
Cn1c(=NC(=O)C(C)(C)C)sc2cccc(F)c21,"14.1 µM [rising, single point]",–
O=C(Nc1ccccc1C(=O)N1CCOCC1)c1ccncc1,"32.6 µM [falling, partial curve, poor fit]",–
O=C(CN1C(=O)NC(Cc2c[nH]c3ccccc23)C1=O)Nc1cccc(S(=O)(=O)N2CCOCC2)c1 (stereo unspecified),"35.5 µM [falling, single point]",–

# An excerpt from above in order of count of non-hydrogen atoms, falling.
SMILES,AC50 [1],AC50 [2]
O=C(Nc1ccc(S(=O)(=O)N2CCOCC2)cc1)c1cc([N+](=O)[O-])ccc1Cl,"11.2 µM [falling, partial curve, poor fit]",–
Cc1cc(C)n(CCCNC(=O)C(C)(C)Oc2ccc(Cl)cc2)n1,"18.4 µM [falling, single point]",–
O=c1c2cc(F)ccc2sn1-c1ccc(F)cc1,"16.4 µM [falling, partial curve, poor fit]","16.4 µM [falling, partial curve, poor fit]"

# (cont.)

SMILES,AC50 [1],AC50 [2]
COc1ccc2c(c1)C(=O)N1[C@H]3c4cc(Br)ccc4OC[C@@H]3[C@H](c3ccccc3)[C@]1(C)C(=O)N2,"5.8 µM [falling, full curve]","3.26 µM [rising, full curve, poor fit]"
CCN1CCN(CCCNC(=O)c2cc3sccc3n2CC)CC1,"29.1 µM [rising, single point]",–
Cc1cccc(C(=O)Nc2sc3c(c2C#N)CCCCC3)c1,"0.326 µM [rising, full curve, poor fit]",–
C=CCNCC(=O)Nc1ccccc1SCC(=O)Nc1ccsc1C(=O)OC,"35.5 µM [falling, single point]",–
Cc1c(C)c2ccc(OS(C)(=O)=O)cc2oc1=O,"16.4 µM [rising, single point]",–
Cc1cc(C)c2c(c1)c(C)cc1nnc(SCC(=O)NCc3ccco3)n12,"29.1 µM [falling, single point]",–
CCCCn1c(=S)[nH]c2ccc(N3CCOCC3)cc2c1=O,"7.08 µM [falling, partial curve]",–
Cc1cc(NC(=O)c2ccc3c(c2)OCCO3)ccc1NC(=O)c1cc2ccccc2o1,"17.8 µM [falling, single point]",–
CCCS(=O)(=O)N1CCCC(C(=O)c2cccc(Cl)c2)C1 (stereo unspecified),"6.31 µM [rising, single point]",–
COc1ccc2c(c1)Cc1sc(NC(C)=O)nc1-2,"2.59 µM [rising, full curve, poor fit]",–
CCOC(=O)c1ccc(N=c2sc(C(=O)OC)cc(=O)n2CCCN2CCOCC2)cc1,"11.2 µM [falling, single point] and 29.1 µM [falling, single point]",–
Cc1ccc(N=C2NC(=O)/C(=C/c3cccn3C)S2)cc1,"15.8 µM [falling, partial curve]",–
CCc1ccc2[nH]c(=O)c(CN(Cc3ccc4c(c3)OCO4)Cc3nnnn3C3CCCC3)cc2c1,"13 µM [falling, single point]",–
CCOC(=O)C1CCN(C2=NC(=O)/C(=C/c3ccc(Cl)cc3)S2)CC1,"15.8 µM [falling, single point]",–
Cc1c(C(=O)Nc2ccc3nc(N4CCOCC4)sc3c2)oc2ccccc12,"16.4 µM [falling, partial curve]",–
Cc1nn(-c2ccc(C(=O)O)cc2)c(=O)c2ccccc12,"14.1 µM [falling, partial curve]",–
COc1ccc2c(c1)CC[C@@H]1[C@@H]2CC[C@]2(C)C(=O)CC[C@@H]12,"18.4 µM [rising, single point]","23.1 µM [falling, partial curve, poor fit]"
C/C(=N\Nc1ccccc1[N+](=O)[O-])c1ccc(N2CCOCC2)cc1,"17.8 µM [rising, single point]",–
COc1ccccc1/C=C/C(=O)Nc1cccnc1Cl,"7.08 µM [falling, partial curve, poor fit]",–
